# Laboratory results as given in patent publication US20160263214A1, “CALCIUM FLUORIDE COMPOSITIONS” (GLAXOSMITHKLINE BIOLOGICALS S.A., priority 2013, published 2016).
# At least one structure is not confirmed: it was looked up by name or label, or the drawing left a doubt.
# Experiment: Composite organic content by thermogravimetry
# Assay type: physicochemical
# Conditions: dry material
# Protocol: Dry material sample were submitted to thermogravimetry. Weight losses from RT to 600° C. under N2 and from 600° C. to 800° C. under O2 were recorded and represent by difference the quantity of burned organic material.
structure (smiles),measurement,value
O=c1[nH]c(=O)c2nc[nH]c2[nH]1 [Xanthine],Weight losses Between 0 and 200° C. under N2,0.3%
same,Weight losses Between 200 et 600° C. under N2,67.7%
same,Weight losses Between 600 et 800° C. under Air,32.0%
